Source: PMC10411459
Results are given in words; binding and its absence hold for the method and conditions named. For part of these data: In cells and extracts the contact can be indirect. Some results given as binding are weak or reduced against the parent protein; the word gives no strength.

By UniProt entry, the sequences of proteins in these tests, tags left out. Where a name states a change or a piece, a line headed by the entry shows the natural chain unless it says otherwise.
UniProt P08670: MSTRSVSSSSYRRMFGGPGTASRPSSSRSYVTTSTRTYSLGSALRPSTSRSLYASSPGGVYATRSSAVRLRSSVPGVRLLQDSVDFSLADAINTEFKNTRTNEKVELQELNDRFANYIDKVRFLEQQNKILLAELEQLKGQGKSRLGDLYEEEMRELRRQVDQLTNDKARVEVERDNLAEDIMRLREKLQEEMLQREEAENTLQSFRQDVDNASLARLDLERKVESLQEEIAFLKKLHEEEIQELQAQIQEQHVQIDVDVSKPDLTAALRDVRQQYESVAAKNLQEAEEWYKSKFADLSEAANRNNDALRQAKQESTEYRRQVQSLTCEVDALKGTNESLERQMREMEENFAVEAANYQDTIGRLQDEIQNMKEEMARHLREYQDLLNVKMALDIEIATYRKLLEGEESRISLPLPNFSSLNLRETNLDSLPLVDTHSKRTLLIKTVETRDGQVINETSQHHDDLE
UniProt P62136: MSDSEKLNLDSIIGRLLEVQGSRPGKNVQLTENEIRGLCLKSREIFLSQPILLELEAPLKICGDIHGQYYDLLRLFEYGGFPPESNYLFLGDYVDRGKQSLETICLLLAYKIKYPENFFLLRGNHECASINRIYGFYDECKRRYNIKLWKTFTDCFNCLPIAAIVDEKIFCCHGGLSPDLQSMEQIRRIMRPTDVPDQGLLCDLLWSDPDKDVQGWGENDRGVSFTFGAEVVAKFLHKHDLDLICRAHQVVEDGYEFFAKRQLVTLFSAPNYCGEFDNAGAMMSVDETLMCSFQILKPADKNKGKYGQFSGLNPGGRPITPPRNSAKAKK

Columns and labels:
[1] = biological target: vimentin (human (endogenous in MHCC-97H)) (UniProt P08670); test: native gel or EMSA; Native-PAGE and immunoblotting of vimentin in Hep3B and MHCC-97H cells
[2] = biological target: vimentin (human (endogenous in MHCC-97H)) (UniProt P08670); test: SEC; whole cell lysates of MHCC-97H and Hep3B over Superdex 200 in cold PBS, vimentin monomers, tetramers and polymers detected by immunoblotting, GP73 knocked down or overexpressed
[3] = biological target: Serine/Threonine-protein phosphatase PP1-alpha (human (endogenous in MHCC-97H)) (UniProt P62136); test: co-IP; lysates of HCC cells (MHCC-97H, Hep3B), immunoblotting; GP73 knocked down or overexpressed (Fig. 4C), vimentin S56 mutants transfected (Fig. 4D), Clomipramine for 24 h (Fig. 5G)
[4] = biological target: T1, Golgi-protein 73 (human (endogenous in MHCC-97H)) (UniProt Q8NBJ4); test: as above
T1 sequence: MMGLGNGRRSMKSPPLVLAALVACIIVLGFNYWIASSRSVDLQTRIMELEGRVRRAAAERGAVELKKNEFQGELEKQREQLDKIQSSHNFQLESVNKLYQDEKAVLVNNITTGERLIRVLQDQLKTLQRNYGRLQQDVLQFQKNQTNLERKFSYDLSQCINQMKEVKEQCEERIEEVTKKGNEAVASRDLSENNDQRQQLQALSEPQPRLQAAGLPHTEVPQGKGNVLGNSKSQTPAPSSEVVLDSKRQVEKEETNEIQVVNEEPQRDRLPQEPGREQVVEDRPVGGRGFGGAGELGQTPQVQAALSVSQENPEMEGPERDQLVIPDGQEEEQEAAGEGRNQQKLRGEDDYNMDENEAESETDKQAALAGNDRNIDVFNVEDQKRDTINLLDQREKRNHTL

With vimentin (from UniProt P08670 1-466) the binding [1] was “binds”, the binding [2] was “binds” and the binding [3] was “binds”. For the same molecule, the binding [4] was “binds”.

In the case of “vimentin S56A mutant (from UniProt P08670 1-466)”, the binding [4] is reported as “binds”.

B1: Golgi-protein 73 (protein, UniProt Q8NBJ4 1-401)
chain: MMGLGNGRRSMKSPPLVLAALVACIIVLGFNYWIASSRSVDLQTRIMELEGRVRRAAAERGAVELKKNEFQGELEKQREQLDKIQSSHNFQLESVNKLYQDEKAVLVNNITTGERLIRVLQDQLKTLQRNYGRLQQDVLQFQKNQTNLERKFSYDLSQCINQMKEVKEQCEERIEEVTKKGNEAVASRDLSENNDQRQQLQALSEPQPRLQAAGLPHTEVPQGKGNVLGNSKSQTPAPSSEVVLDSKRQVEKEETNEIQVVNEEPQRDRLPQEPGREQVVEDRPVGGRGFGGAGELGQTPQVQAALSVSQENPEMEGPERDQLVIPDGQEEEQEAAGEGRNQQKLRGEDDYNMDENEAESETDKQAALAGNDRNIDVFNVEDQKRDTINLLDQREKRNHTL
In the case of B1, the binding [3] is reported as “binds”.
